Laboratory results published in patent US5503989 (dated 1996).

Experiment: general procedure: peptide synthesis; 1-(3-dimethylaminopropyl)-3-ethylcarbodiimide with HOBt/ammonia or ammonium N-hy
Conditions: late stage modification step

human amylin
step yield: about 16% | step yield (by HPLC): greater than 95% | step yield (monitored by HPLC, run 1): 15% | step yield (monitored by HPLC, run 2): in excess of 15%
